According to US9029601B2, “Aryloxyurea compound and pest control agent” (Nippon Soda Co., Ltd., priority 2010, dated 2015):
Some of these results come from one statement about several compounds together.

Legend:
Assay type in all cases: in vivo
[1] = test system: adult female Tetranychus kanzawai from Okayama Prefecture; assay: Efficacy test against Tetranychus kanzawai (spray on kidney bean plant); details: emulsion diluted to 500 ppm, sprayed on kidney bean plant; 3 days / 14 days after spraying
[2] = test system: adult female Panonychus citri from Kanagawa Prefecture; assay: Efficacy test against Panonychus citri (Kanagawa Prefecture; spray on mandarin orange leaf); details: emulsion diluted to 125 ppm, sprayed on mandarin orange leaf; Kanagawa strain; 3 days / 10 days after spraying
[3] = test system: acaricide-resistant adult female Aculops pelekassi; assay: Efficacy test against Aculops pelekassi (spray on mandarin orange leaf); details: emulsion diluted to 125 ppm, sprayed on mandarin orange leaf; 3 days / 10 days after spraying
[4] = test system: organic phosphorous-resistant adult female Tetranychus urticae; assay: Efficacy test against Tetranychus urticae (spray on kidney bean plant); details: emulsion diluted to 125 ppm, sprayed on kidney bean plant; 25° C., humidity 65%; adults 3 days, egg-to-adult development 14 days after spraying
[5] = test system: acaricide-resistant adult female Panonychus citri from Wakayama Prefecture; assay: Efficacy test against acaricide-resistant Panonychus citri (Wakayama Prefecture); details: emulsion diluted to 125 ppm, sprayed on mandarin orange leaf; acaricide-resistant Wakayama strain; 3 days / 10 days after spraying

| Compound | insect mortality rate [2] | insect mortality rate [3] | further results |
| --- | --- | --- | --- |
| CCOC(=O)NCC(C)(C)NC(=O)N(CC)Oc1cc(Cl)cc(Br)c1 [1-123] | ≥ 90% | – | insect mortality rate [1]: ≥ 90% |
| CCN(Oc1ccc2ccccc2n1)C(=O)NC(C)(C)C [2-9] | – | ≥ 90% | – |
| CCC(C)NC(=O)C(C)(C)NC(=O)N(CC)Oc1cc(Cl)cc(Br)c1 (centres unmarked) [1-134] | ≥ 90% | – | insect mortality rate [4]: ≥ 90% |
| CCN(Oc1cc(Cl)cc(Br)c1)C(=O)NC(C)(C)c1cc(OC)ccn1 [1-180] | ≥ 90% | – | insect mortality rate [4]: ≥ 90% |
| CCN(Oc1ccc([N+](=O)[O-])cc1)C(=O)NC(C)(C)C [1-13] | – | ≥ 90% | insect mortality rate [1]: ≥ 90% |
| CCN(Oc1cc(Cl)cc(OC)c1)C(=O)NC(C)(C)C [1-9] | – | ≥ 90% | – |
| CCN(Oc1cc(Br)cc(OC)c1)C(=O)NC(C)(C)c1ccccc1 [1-35] | – | – | insect mortality rate [5]: ≥ 90% |
